According to patent US20060281686A1 (priority 2002, published 2006):
*1 amine or outer side, *2 acyl side, *3 side chain or, on linkers, in order; H or OH if unused. [ ]: non-standard residue; d: D form. azaPro = O=C(N1CCCN1[*:1])[*:2]

Test: general procedure: peptide synthesis; Rink resin NOVASYN TGR resin LL (0.23 mmol/g)
Conditions: whole synthesis, scale of the general procedure 11.7 g resin

## Ac-L[azaPro]FFD-NH2 (SMILES CC(=O)N[C@@H](CC(C)C)C(=O)N1CCCN1C(=O)N[C@@H](Cc1ccccc1)C(=O)N[C@@H](Cc1ccccc1)C(=O)N[C@@H](CC(=O)O)C(N)=O)
  final purity (method not given): purity 95%
